From the supplement of paper PMC12823440, “Inhibitors supercharge kinase turnover through native proteolytic circuits” (Nature, 2025)
Counter-ions that a name gives are not always drawn. The list shows a part of the results. Hit calls seldom repeat between salt and free forms of one compound.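 Kinases were expressed as nanoluciferase fusions in K562 cells and luminescence was read every 4 h between 2 and 18 h as percent of control, DMSO set to 100% and a positive control to 0%. A time point counts as decreased when the signal drops significantly (2 sigma). The hit call is the authors' own, does not follow from the count of time points alone, and its rule is not shown.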

Amino acid sequences for entries named in this document (tags omitted). A change or cut given only in a name is not applied to a line headed by its entry.
UniProt P51813: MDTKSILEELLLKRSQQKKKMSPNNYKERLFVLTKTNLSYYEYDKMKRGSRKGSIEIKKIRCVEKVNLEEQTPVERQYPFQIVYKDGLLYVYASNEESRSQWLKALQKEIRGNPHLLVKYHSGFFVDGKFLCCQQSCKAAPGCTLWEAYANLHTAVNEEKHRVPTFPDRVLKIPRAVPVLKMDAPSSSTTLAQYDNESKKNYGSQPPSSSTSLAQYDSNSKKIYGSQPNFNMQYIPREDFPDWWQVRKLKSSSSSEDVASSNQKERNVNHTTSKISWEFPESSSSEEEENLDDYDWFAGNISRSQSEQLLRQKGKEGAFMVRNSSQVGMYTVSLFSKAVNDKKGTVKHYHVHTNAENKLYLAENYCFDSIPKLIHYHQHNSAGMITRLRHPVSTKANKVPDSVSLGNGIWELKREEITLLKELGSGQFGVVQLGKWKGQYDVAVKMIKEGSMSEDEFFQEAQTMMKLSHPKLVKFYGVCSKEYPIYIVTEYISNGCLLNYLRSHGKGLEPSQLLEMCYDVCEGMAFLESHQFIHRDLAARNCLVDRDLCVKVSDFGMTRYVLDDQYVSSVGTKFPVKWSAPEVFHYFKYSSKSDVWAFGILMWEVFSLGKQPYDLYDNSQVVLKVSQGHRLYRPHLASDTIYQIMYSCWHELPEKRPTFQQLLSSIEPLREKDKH
UniProt P15056, whole entry, looked up: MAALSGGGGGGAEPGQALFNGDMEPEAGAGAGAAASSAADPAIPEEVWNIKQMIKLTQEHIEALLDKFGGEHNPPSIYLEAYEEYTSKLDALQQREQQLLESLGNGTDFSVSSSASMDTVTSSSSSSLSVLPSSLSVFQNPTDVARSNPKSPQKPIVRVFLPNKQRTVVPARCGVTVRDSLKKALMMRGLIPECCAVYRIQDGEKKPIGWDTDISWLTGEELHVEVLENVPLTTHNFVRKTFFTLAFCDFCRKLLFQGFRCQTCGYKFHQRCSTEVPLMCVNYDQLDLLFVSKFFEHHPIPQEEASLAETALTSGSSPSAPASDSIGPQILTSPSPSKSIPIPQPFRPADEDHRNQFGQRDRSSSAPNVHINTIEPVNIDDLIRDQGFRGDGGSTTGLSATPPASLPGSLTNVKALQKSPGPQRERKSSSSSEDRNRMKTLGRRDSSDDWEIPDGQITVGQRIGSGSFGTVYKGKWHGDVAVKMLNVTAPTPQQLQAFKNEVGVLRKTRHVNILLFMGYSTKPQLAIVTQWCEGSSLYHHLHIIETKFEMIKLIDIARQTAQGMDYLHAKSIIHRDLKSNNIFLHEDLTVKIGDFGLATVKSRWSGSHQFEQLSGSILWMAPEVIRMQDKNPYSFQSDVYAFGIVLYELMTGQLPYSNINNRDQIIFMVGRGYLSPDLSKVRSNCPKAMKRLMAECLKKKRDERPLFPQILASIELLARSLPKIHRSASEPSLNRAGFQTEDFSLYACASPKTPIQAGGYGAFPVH

target: BMX (UniProt P51813); test: number of time points (of 5) at which kinase-Nluc abundance scored as decreased, DMSO-normalised (count); higher = more persistent destabilization; conditions: K562; 2-18 h

Row | Compound | number of time points
1 | Cn1cnc2c(F)c(Nc3ccc(Br)cc3Cl)c(C(=O)NOCCO)cc21 [Selumetinib] (10 µM) | 0
2 | CCc1cc2c(cc1N1CCC(N3CCOCC3)CC1)C(C)(C)c1[nH]c3cc(C#N)ccc3c1C2=O [Alectinib] (10 µM) | 0
3 | C=C(CC[C@@H](C(=O)O)[C@H]1[C@H](O)C[C@@]2(C)C3=C(CC[C@]12C)[C@@]1(C)CC[C@H](OC(C)=O)C(C)(C)[C@@H]1CC3)C(C)C [Pachymic acid] (10 µM) | 0
4 | Cc1[nH]c(/C=C2\C(=O)Nc3ccccc32)c(C)c1CCC(=O)O [Orantinib] (10 µM) | 0
5 | C=CC(=O)Nc1ccc(CN2C(=O)N(c3cc(OC)cc(OC)c3)Cc3cnc(Nc4ccc(N5CCN(C)CC5)cc4)nc32)cc1 (2.5 µM) | 0

target: BRAF (UniProt P15056); test: as above; conditions: K562; 2-18 h

Row | Compound | number of time points
6 | C[C@@H]1CCN(C(=O)CC#N)C[C@@H]1N(C)c1ncnc2[nH]ccc12 [Tofacitinib] (10 µM) | 0
7 | CC#CC(=O)N1CC[C@@H](n2c(=O)n(-c3ccc(Oc4ccccc4)cc3)c3c(N)ncnc32)C1 [Tirabrutinib (hydrochloride)] (10 µM) | 0
8 | C[C@@]1(c2ncncc2F)NC(=O)c2cc(-c3cn[nH]c3)ccc21 (10 µM) | 0
9 | COc1cc(Nc2ncc(F)c(Nc3ccc4c(n3)NC(=O)C(C)(C)O4)n2)cc(OC)c1OC (10 µM) | 0
10 | Cc1cc2ncc(-c3ccc(O)c(O)c3)nc2cc1C [Tyrphostin AG1433] (10 µM) | 0
11 | CCc1cc2c(cc1N1CCC(N3CCOCC3)CC1)C(C)(C)c1[nH]c3cc(C#N)ccc3c1C2=O [Alectinib (Hydrochloride)] (2 µM) | 0
12 | Cn1nccc1Nc1nccc(-c2ccn([C@H](CO)c3ccc(Cl)c(F)c3)c(=O)c2)n1 [Ravoxertinib hydrochloride] (10 µM) | 0
13 | CC#CC(=O)N1CC[C@@H](n2c(=O)n(-c3ccc(Oc4ccccc4)cc3)c3c(N)ncnc32)C1 [Tirabrutinib] (10 µM) | 0
14 | COc1cc(Nc2ncc(F)c(Nc3ccc4c(n3)N(COP(=O)(O)O)C(=O)C(C)(C)O4)n2)cc(OC)c1OC [Fostamatinib Disodium] (10 µM) | 0
15 | COc1cc(Nc2ncc(F)c(Nc3ccc4c(n3)N(COP(=O)(O)O)C(=O)C(C)(C)O4)n2)cc(OC)c1OC [Fostamatinib (disodium hexahydrate)] (10 µM) | 0
16 | Oc1ccc(Nc2nc(-c3ccc(Cl)cc3)cs2)cc1 (10 µM) | 0
17 | NC(=O)c1nc(Nc2ccccc2)sc1NC(=O)C1CCCCC1 (10 µM) | 0
18 | CC1=C(C(=O)O)N2C(=O)[C@@H](NC(=O)[C@H](N)C3=CCC=CC3)[C@H]2SC1 [Cephradine] (10 µM) | 0
19 | Cc1ccc2nc(NCCN)c3ncc(C)n3c2c1 (2.5 µM) | 0
20 | CC(=O)NC1CC(n2cnc(NC(=O)Cc3ccc4ccccc4c3)c2)C1 (configuration not stated) (10 µM) | 0
21 | CCN1CCN(Cc2ccc(Nc3ncc(F)c(-c4cc(F)c5nc(C)n(C(C)C)c5c4)n3)nc2)CC1 [Abemaciclib] (2 µM) | 0
22 | C[C@@H]1CCN(C(=O)CC#N)C[C@@H]1N(C)c1ncnc2[nH]ccc12 [Tofacitinib (citrate)] (10 µM) | 0
23 | Cn1nccc1Nc1nccc(-c2ccn([C@H](CO)c3ccc(Cl)c(F)c3)c(=O)c2)n1 [Ravoxertinib] (10 µM) | 0
24 | COc1cc(Nc2ncc(F)c(Nc3ccc4c(n3)NC(=O)C(C)(C)O4)n2)cc(OC)c1OC [R406 (free base)] (10 µM) | 0
25 | S=C(SSC(=S)N1CCOCC1)N1CCOCC1 (10 µM) | 0
26 | CC1CCc2c(cc(Br)c(F)c2Br)N1C=O (configuration not stated) (10 µM) | 0
27 | Cc1[nH]c(/C=C2\C(=O)Nc3ccccc32)c(C)c1CCC(=O)O [(Z)-Orantinib] (10 µM) | 0
28 | CCN1CCN(Cc2ccc(Nc3ncc(F)c(-c4cc(F)c5nc(C)n(C(C)C)c5c4)n3)nc2)CC1 [Abemaciclib (methanesulfonate)] (10 µM) | 0
29 | CCc1cc2c(cc1N1CCC(N3CCOCC3)CC1)C(C)(C)c1[nH]c3cc(C#N)ccc3c1C2=O [Alectinib] (10 µM) | 0
30 | C=C(CC[C@@H](C(=O)O)[C@H]1[C@H](O)C[C@@]2(C)C3=C(CC[C@]12C)[C@@]1(C)CC[C@H](OC(C)=O)C(C)(C)[C@@H]1CC3)C(C)C [Pachymic acid] (10 µM) | 0
31 | Cc1[nH]c(/C=C2\C(=O)Nc3ccccc32)c(C)c1CCC(=O)O [Orantinib] (10 µM) | 0
32 | C=CC(=O)Nc1ccc(CN2C(=O)N(c3cc(OC)cc(OC)c3)Cc3cnc(Nc4ccc(N5CCN(C)CC5)cc4)nc32)cc1 (2.5 µM) | 2
